# Test results taken from doi:10.1101/2020.04.01.839274 (bioRxiv, 2020).
# Chains of the proteins cited; added tags and fusions are not shown. Lines headed by an entry give the natural chain unless they say otherwise; changes in a name come on top. A line that says so, or that is headed by a name, gives the form on record, which may keep a tag or linker.
# UniProt Q8VBV3: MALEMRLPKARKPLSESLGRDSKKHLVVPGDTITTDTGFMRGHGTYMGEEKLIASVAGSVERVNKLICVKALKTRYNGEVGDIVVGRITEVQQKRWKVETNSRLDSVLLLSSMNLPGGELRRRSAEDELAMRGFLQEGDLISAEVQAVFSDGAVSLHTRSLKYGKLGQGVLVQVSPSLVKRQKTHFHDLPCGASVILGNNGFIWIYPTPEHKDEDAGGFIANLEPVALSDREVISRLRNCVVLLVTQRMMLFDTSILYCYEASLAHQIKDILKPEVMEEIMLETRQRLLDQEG
# UniProt Q9CRA8: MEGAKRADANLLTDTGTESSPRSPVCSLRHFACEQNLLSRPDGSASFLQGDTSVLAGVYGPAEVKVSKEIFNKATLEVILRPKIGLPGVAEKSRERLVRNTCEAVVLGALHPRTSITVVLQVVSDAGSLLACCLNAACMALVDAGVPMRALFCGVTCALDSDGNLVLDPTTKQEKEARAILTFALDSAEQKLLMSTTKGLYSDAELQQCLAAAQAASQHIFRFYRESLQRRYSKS
# Myc-tagged mouse EXOSC5 p.Met148Thr (Q9CRA8, form named): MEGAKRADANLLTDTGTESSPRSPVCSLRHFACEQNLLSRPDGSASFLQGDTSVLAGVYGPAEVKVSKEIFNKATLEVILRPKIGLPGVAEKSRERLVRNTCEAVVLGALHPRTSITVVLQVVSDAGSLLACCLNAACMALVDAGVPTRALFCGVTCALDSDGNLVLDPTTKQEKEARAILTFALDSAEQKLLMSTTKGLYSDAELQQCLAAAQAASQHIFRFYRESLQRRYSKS
# Results are given in words; binding and its absence hold for the method and conditions named. Binding seen in cells or lysates may run through a third protein. Some results given as binding are weak or reduced against the parent protein; the word gives no strength.
# Assays:
# Assay in all cases: co-IP
# [1] = molecular target: Myc-tagged mouse EXOSC2 p.G198D (mouse) (UniProt Q8VBV3)
# [2] = molecular target: Myc-tagged mouse EXOSC5 p.Met148Thr (mouse) (UniProt Q9CRA8)
# [3] = molecular target: Myc-tagged wild-type mouse EXOSC2 (mouse) (UniProt Q8VBV3)
# [4] = molecular target: Myc-tagged wild-type mouse EXOSC5 (mouse) (UniProt Q9CRA8)
binding [1],binding [2],binding [3],binding [4],Binder
binds,binds,binds,binds,"endogenous EXOSC10 (natural protein, mouse (endogenous in Neuro-2a), UniProt P56960 1-887, looked up) MAPPSPREHQSAPATSATKPDAEMVLPGFPDADSFVKFALGSVVAVTKASGGLPQFGDEYDFYRSFPAFQAFCETQGDRLLQCMSRVMQYHGCRSNIKDRSKVTELEDKFDLLVDTNDVILERVGMLLDEASGVNKHQQPVLPAGLQVPKTIVSSWNRKAGEYGKKAKSETFRLLHAKNIVRPQLRFREKIDNSNTPFLPKIFVKPNARKPLPLALSKERRERPQDRPEDLDVPPALADFIHQQRTQQVEQDMFAHPYQYELDHFTPPQSVLQRPKPQLYRAVGETPCHLVSSLDELVELNEKLLGCQEFAVDLEHHSYRSFLGLTCLMQISTRTEDFIVDTLELRSDMYILNESLTDPAIVKVFHGADSDIEWLQKDFGLYVVNMFDTHQAARLLNLARHSLDHLLRLYCGVESNKQYQLADWRIRPLPEEMLSYARDDTHYLLYIYDRMRLELWERGNHQPVQLQVVWQRSRDICLKKFVKPIFTDESYLELYRKQKKHLNSQQLTAFQLLFAWRDKTARREDESYGYVLPNHMMLKIAEELPKEPQGIIACCNPVPPLVRQQINEMHLLIQQAREMPLLKSENAAGVRKSGPLPSAERLENDLFGPHDCSHAPPDNYQNTSTDGTLPLQKQPSLFTEGKEETSVDAGCLLATAVITLFSEPNTEEGGKTPLTVAQKKAQNIMQSFENPFRMFLPSLEHKAHISQAAKFDPSSKIYEISNRWKLASQVQVQKEPKEATKKKVAEQTAAREEAKEEAAAGVLEQAIPVRQQAALENATKKRERATSDLRTIEQKQEKKRLKSSKKAKDPDPPGKDFSPYDYSQSDFRAFAGDSKSKPSSQFDPNKLAPSGKKGVGAKKCKQSVGNKSMSFAVGKSDRGFRHNWPKR"
binds,binds,binds,binds,"endogenous EXOSC3 (natural protein, mouse (endogenous in Neuro-2a), UniProt Q7TQK4 1-274, looked up) MAEVLSAGPESVAGCRARAVHKVLNQVVLPGEELVLPDHEDVDGLGGAGEQPLRLNAGARPRLRVVCGPGLRRCGDRLLVTKCGRLRHKEPSGGGGGVYWVDSQQKRYVPVKGDHVIGIVIAKSGDIFKVDVGGSEPASLSYLAFEGATKRNRPNVQVGDLIYGQCVVANKDMEPEMVCIDSCGRANGMGVIGQDGLLFKVTLGLIRKLLAPDCEIVQELGKLYPLEIVFGMNGRIWVKAKTIQQTLILANVLEACEHMTTEQRKQIFARLAES"
binds,binds,binds,binds,"endogenous EXOSC9 (natural protein, mouse (endogenous in Neuro-2a), UniProt Q9JHI7 1-438, looked up) MKETPLSNCERRFLLRAIEEKKRLDGRQTYDYRNIRISFGTDYGCCIVELGKTRVLGQVSCELVSPKLNRATEGILFFNLELSQMAAPAFEPGRQSDLLVKLNRLLERCLRNSKCIDTESLCVVAGEKVWQIRVDLHLLNHDGNIIDAASIAAIVALCHFRRPDVSVQGEEVTLYTPEERDPVPLSIHHMPICVSFAFFQQGTYLLVDPNEREERVMDGLLVIAMNKHREICTIQSSGGIMLLKDQVFRCSKIAGVKVAEITELIQKALENDQRVRKEGGKFGFAESIANQRITAFKMETAPIDTSNIEERAEEIIAEAEPPPEVVSQPVLWTPGTAQIGDGIENSWGDLEDSEKEEEEEEGGIDEAVILDDTKMDTGEVSDIGSQGAPIVLSDSEEEEMIILEPEKNPKKIRAQTSANQKAPSKGQGKRKKKKRTAN"
